Key:
[1] = tested on: HPA axis hormones and steroids; test: Single ascending dose study, HPA axis hormones and steroids; assay type: in vivo; conditions: human
[2] = tested on: HPA axis hormones and steroids; test: Multiple ascending dose study, HPA axis hormones and steroids; assay type: in vivo; conditions: human, in words
Procedure: A double‐blind, randomized, placebo‐controlled multiple ascending dose study was carried out at Linear Clinical Research Ltd, Nedlands, Australia. Each cohort consisted of eight healthy male subjects. Each subject received UE2343 or placebo twice daily (b.i.d ) (12 hourly) in the fed state for 9 days (Day 1 to Day 9) and once on the morning of Day 10 (19 doses in total). Dose cohorts were 10, 20 and 35 mg. Dose escalation and selection was dependent upon satisfactory review of the blinded safety (up to Day 17 ± 2) and plasma pharmacokinetics (up to Day 12) data from the preceding cohort. Safety, pharmacokinetic and pharmacodynamic assessments were made at pre‐determined time‐points during each part of the study.
Laboratory evaluation of clinical safety parameters was carried out using standard validated methods. Measurement of plasma pharmacodynamic markers [adrenocorticotropic hormone (ACTH), cortisol, 4‐androstenedione, testosterone and dehydroepiandrosterone sulphate (DHEA‐s)] was carried out using commercially available kits. Each method was fully validated prior to analysis. Urinary steroid metabolites were measured according to established methods (Boonen et al., 2013). UE2343 levels in plasma, urine and CSF was determined by LC–MS/MS using fully validated methods.
The data and statistical analysis comply with the recommendations on experimental design and analysis in pharmacology (Curtis et al., 2015). Levels of probability, P < 0.05 were deemed to constitute the threshold for statistical significance. Pharmacokinetic parameters, except Tmax (time of maximum observed drug concentration), are given as mean ± coefficient of variation (CV%). Tmax is given as median ± range. For each of the pharmacodynamic parameters [ACTH, cortisol, adrenal androgens, tetrahydrocortisols (THFs)/tetrahydrocortisone (THE) ratio], the maximum % change from baseline for each subject was subjected to ANOVA. For selected data, an additional covariate factor for the baseline was also included in the ANOVA/analysis of covariance (ANCOVA) model. […]

## O=C(c1csc(-c2cn[nH]c2)c1)N1C2CCC1CC(O)(c1ncccn1)C2 (stereo not drawn) [compound 4]
[1]; single dose
  time post‐dose by which ACTH values had returned to baseline: approximately 47 h
[1]; single dose, across the 18–35 mg dose range, in words
  plasma ACTH: dose‐dependent increase
[1]; single dose, significant at 2, 5 and 35 mg (P < 0.05), in words
  DHEA‐s compared to placebo: higher
[1]; single doses 2–35 mg, in words
  effect on 4‐androstenedione levels: no effect
  effect on serum cortisol levels: no effect
  effect on testosterone levels: no effect
[2]; 10 and 20 mg b.i.d (P < 0.05)
  4‐androstenedione change from baseline compared with placebo: statistically significant increases
[2]; multiple doses 10–35 mg b.i.d
  changes in cortisol, testosterone, 4‐androstenedione or DHEA‐s: No dose‐dependent relationship
[2]; multiple doses, significant vs placebo at 10 and 35 mg
  DHEA‐s change from baseline: increased from baseline

Source: paper PMC5301048, “Selection and early clinical evaluation of the brain‐penetrant 11β‐hydroxysteroid dehydrogenase type 1 (11β‐HSD1) inhibitor UE2343 (Xanamem™)” (British Journal of Pharmacology, 2017)
